Test system: B16-F10 cells
Experiment: Proteomic analysis of B16-F10 cells (DIA mass spectrometry)
Assay type: cell-based, mouse
Details: fold change ≥ 2
Experimental: B16-F10 cells were treated with various concentrations of carboxylic acids following the same culture protocol used for melanin inhibition assays. After treatment, the cells were collected and submitted to Shanghai Zhongke Xinming Biotechnology Co., Ltd. (Shanghai, China) for proteomics analysis. The collected cells were lysed with an appropriate volume of SDT lysis buffer (4% SDS, 100 mM Tris-HCl, pH 7.6) to extract proteins. DTT was added to reduce disulfide bonds, followed by incubation at room temperature for 1 h. Subsequently, iodoacetamide was added, and the mixture was reacted in the dark at room temperature for 30 min. The proteins were then digested with trypsin overnight. The resulting peptide fragments were desalted using a C18 cartridge. After freeze-drying, the peptides were resuspended in 40 μL of 0.1% formic acid solution, and the peptide concentration was determined by measuring the absorbance at 280 nm. An appropriate amount of internal reference for targeted proteomics (iRT) standard peptides was added to each sample for data-independent acquisition (DIA) mass spectrometry analysis. Chromatographic separation was performed using a nanoflow Evosep One system. The separated samples were analyzed by DIA mass spectrometry using a timsTOF Pro mass spectrometer (Bruker Daltonics, Bremen, Germany). Detection was conducted in positive-ion mode, with MS and MS/MS scanning ranges set from 100 to 1700 m/z. MS2 data acquisition was performed in DIA mode, with four TIMS scan windows, each accumulating for 100 ms. In PASEF mode, the collision energy varied linearly with ion mobility (1/K0), ranging from 20 to 59 eV for ions with 1/K0 values between 0.85 and 1.30 Vs/cm^2. The DIA data were processed using Spectronaut 19 software with the following parameter settings: retention time prediction type set to dynamic iRT, interference correction on MS2 level enabled, cross-run normalization enabled, maximum missed cleavage sites set to 2, fixed modification set to Carbamidomethyl (C), and variable modifications set to Oxidation (M) and Acetyl (Protein N-term). All results were filtered with a Q-value cutoff of 0.01, corresponding to a false discovery rate (FDR) of less than 1%. The target protein set was annotated using Blast2GO (version BLASTP 2.8.0+). The process included four steps: sequence alignment (Blast), GO mapping, GO annotation, and additional annotation augmentation using InterProScan. Using the KOBAS 3.0 software, KEGG pathway annotation was performed on the target protein set. Fisher’s exact test was employed to compare the distribution of GO categories in the target protein set and the overall protein set, thereby conducting enrichment analysis of the GO annotations in the target protein set. The proteomics dataset generated in this study has been made publicly available through the PRIDE ProteomeXchange Consortium with the dataset identifier PXD061919.

Structure (SMILES) | number of downregulated proteins (6 mM) | number of upregulated proteins (6 mM) | number of downregulated proteins (12 mM) | number of upregulated proteins (12 mM)
O=C(O)C(O)Cc1ccccc1 (stereo not shown) [3-phenyllactic acid] | 83 | 24 | – | –
O=C(O)[C@@H]1CCC(O)=N1 [L-pyroglutamic acid] | 32 | 9 | – | –
CC(O)C(=O)O (stereo not shown) [lactic acid] | – | – | 61 | 23
O=C(O)CC(O)C(=O)O (stereo not shown) [malic acid] | – | 14 | – | –
